Inconclusive results, whose numbers are uncertain, are shown with a selection of clear calls. Potencies beside an inconclusive call are fits to weak or partial responses and may not hold up. Calls of active or inactive are those of the source. The call rests on the fitted dose curve; in most records, active means well fitted activation curve with a large enough effect; inconclusive means small, poorly fitted or top-dose-only effect; inactive means no such curve, though single readings can be large or run the other way.
Assay: qHTS assay for re-activators of p53 using a Luc reporter: Hit Validation; further: nearly all actives have a fitted effect of over 75% in size; on activation: 0% is about no effect
Settings: p53-responsive luciferase reporter cells, luminescence; series mostly up to 46.1 µM; activation: at the top concentration
Text: The p53 tumor suppressor plays a key role in suppression of tumorigenesis and in human carcinogenesis. It is frequently found inactivated in human cancers, mainly by point mutation. These point mutations are found in a wide variety of human cancers and a majority of them affect the DNA binding domain of the protein. The point mutations either alter native p53 conformation or abolish DNA contact. Additionally, cancer cells with p53 mutations are more resistant to chemo-radiation therapies.
In order to find activators to reactivate this important protein, a cell-based screen for p53-dependent luciferase-reporter expression was developed. A p53-null H1299 lung cancer cell line was stably co-transfected with a temperature sensitive p53 mutant, p53-A138V, and a p53-responsive BP100-luciferase reporter. This cell model has previously been characterized in a gene chip profiling experiment for p53 activation. By lowering the culture temperature from 37 deg C (mutant p53 conformation) to 32 deg C (w.t. p53 conformation), a 30-60 fold increase in activation of luciferase activity is observed. At assay temperate, 37 deg C, basal reporter expression is very low and after the addition of detection reagent, a luminescent read-out is carried out. This is the hit validation assay, confirming the hits identified from the primary screen.
NIH Chemical Genomics Center [NCGC]
NIH Molecular Libraries Probe Production Centers Network [MLPCN]
Assay Provider (PI): Yi Sung, University of Michigan at Ann Arbor
5ul of 1000 cells per well are dispensed in all wells except column 4, into white solid-bottom TC-treated Kalypsys plates. The cells are kept in Opti-MEM and supplemented with 10% FBS and dispensed using a Multidrop (Thermo). Then using the Kalypsys pin-tool, 23nl of compounds are pinned. The compounds are starting concentration at 10mM, with 1:5 dilution, 4 points, and the control compound nocodazole is pinned in column 1 at 25mM, 1:3 dilution, in duplicate, 25mM nocodazole is pinned in column 2. Please note, all concentrations are working concentrations. 5ul of 1pM purified luciferase enzyme is dispensed using the Kalypsys dispenser in column 4. Plates are incubated for 24 hrs at 37 deg C, 5% CO2, and 95% humidity. Then 4ul of the detection reagent Amplite (ABD Bioquest) is added using the Kalypsys dispenser. Plates are incubated for 10 min at ambient room temperature and are then read on the ViewLux (Perkin Elmer) using a clear filter for a luminescent read-out.
Potency means the concentration at half of the fitted maximal effect.

| Compound | Potency | activation |
| --- | --- | --- |
| N#Cc1cc2c(nc1SCC(=O)Nc1cc(Cl)ccc1Cl)C1CCN2CC1 | inconclusive: 36.6 µM [activator, partial curve, poor fit] | – |
| N#Cc1cc2c(nc1SCC(=O)Nc1ccc(Cl)cc1)C1CCN2CC1 | inconclusive: 46.1 µM [activator, single point] | – |
| C=C(C)C(Cc1c(OC)ccc(C(=O)/C=C/c2ccc(O)cc2)c1O)OO (stereo unspecified) | inconclusive: 20.6 µM [activator, partial curve, poor fit] | – |
| COC(=O)C1=C(c2ccc(F)cc2OCc2ccccc2)C[C@@H]2CC[C@H]1N2C(=O)NCCOc1ccc(OC)cc1 | – | inactive: -22.9% |
| O=c1oc2ccccc2n1CSC1=NCCS1 | inconclusive: 23.1 µM [activator, single point] | – |
| COc1ccc(NC(=O)C2C3CCC(O3)C2C(=O)O)c(OC)c1 (stereo unspecified) | – | inactive: 2.6% |
| CCOc1ccc(/C=C/C(=O)C(C(N)=O)=C2SCCS2)cc1 | inconclusive: 20.6 µM [activator, partial curve, poor fit] [H1299 line expressing heat-sensitive Ala138Val p53] | – |
| CN(C)P(=O)(C(Cl)=C(N1CCCCC1)N1CCCCC1)N(C)C | inconclusive: 4.61 µM [activator, single point] | – |
| CC1CCCCC1NC1CCN(C)CC1 (stereo unspecified) | inconclusive: 29.1 µM [activator, partial curve, poor fit] [H1299 line expressing heat-sensitive Ala138Val p53] | – |
| CCCCCCOc1ccc(CN2CCN(C)CC2)cc1 | inconclusive: 3.66 µM [activator, partial curve, poor fit] | – |
| COC(=O)C1=C(c2cccc(C#N)c2)C[C@@H]2CC[C@H]1N2C(=O)NC1CC1 | – | inactive: 16.7% [at 46.1 µM, H1299 line expressing heat-sensitive Ala138Val p53] |
